In patent publication US20240279845A1, “METHOD FOR PREPARING A LIBRARY OF PEPTIDES OR A PEPTIDE” (ECOLE POLYTECHNIQUE FEDERALE DE LAUSANNE (EPFL), priority 2021, published 2024):
For at least one compound, name, drawing or mass did not settle the structure.

Amino acid sequences for entries named in this document (tags omitted).
UniProt Q00987, whole entry: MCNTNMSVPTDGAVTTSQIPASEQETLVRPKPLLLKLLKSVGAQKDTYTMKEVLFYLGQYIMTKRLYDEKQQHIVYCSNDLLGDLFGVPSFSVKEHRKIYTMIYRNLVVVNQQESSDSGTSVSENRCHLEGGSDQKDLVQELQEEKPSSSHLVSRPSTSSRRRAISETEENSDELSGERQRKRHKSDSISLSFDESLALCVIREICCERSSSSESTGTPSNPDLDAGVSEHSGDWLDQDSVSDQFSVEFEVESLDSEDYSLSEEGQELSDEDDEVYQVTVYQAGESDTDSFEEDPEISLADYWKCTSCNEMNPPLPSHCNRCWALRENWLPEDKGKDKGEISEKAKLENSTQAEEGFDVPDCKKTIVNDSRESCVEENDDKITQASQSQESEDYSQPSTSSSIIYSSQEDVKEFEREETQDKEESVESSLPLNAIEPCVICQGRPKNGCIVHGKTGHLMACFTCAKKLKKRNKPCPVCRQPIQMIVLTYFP

Assays:
[1] = molecular target: T1, MDM2 (Homo sapiens, UniProt Q00987); experiment: Direct fluorescence polarization binding of fluorescein-labeled macrocycles to MDM2; conditions: fluorescein conjugates
[2] = molecular target: T1, MDM2; experiment: Ki (nM)

SMILES | Kd [1] [nM] | Ki [2] [nM]
O=C(COCCOCCNC(=O)c1ccc2c(c1)C(=O)OC21c2ccc(O)cc2Oc2cc(O)ccc21)N[C@H]1CSSCCNC(=O)[C@H](Cc2c[nH]c3ccccc23)NC(=O)[C@H](CNC(=O)c2ccc(Cl)s2)NC(=O)[C@H]2CCCN(C2)C1=O [F-M6] | 650 ± 50 | –
O=C(COCCOCCNC(=O)c1ccc2c(c1)C(=O)OC21c2ccc(O)cc2Oc2cc(O)ccc21)N[C@H]1CSSCCNC(=O)[C@H](Cc2c[nH]c3ccccc23)NC(=O)[C@H](CNC(=O)c2ccc(Cl)cc2)NC(=O)[C@H]2CCCN(C2)C1=O [F-M7] | 790 ± 80 | –
O=C(/C=C/c1ccccc1)NC[C@@H]1NC(=O)[C@H]2CCCN(C2)C(=O)[C@@H](NC(=O)COCCOCCNC(=O)c2ccc3c(c2)C(=O)OC32c3ccc(O)cc3Oc3cc(O)ccc32)CSSCCNC(=O)[C@H](Cc2c[nH]c3ccccc23)NC1=O [F-M8] | 340 ± 40 | 390 ± 40
